Key:
[1] = system: K562; experiment: Cytotoxicity against human K562 cells assessed as reduction in cell viability measured after 72 hrs by MTT assay; type: functional, cell-based; details: K562, 72 h
[2] = system: HepG2; experiment: Cytotoxicity against human HepG2 cells assessed as reduction in cell viability measured after 72 hrs by MTT assay; type: functional, cell-based; details: HepG2, 72 h

COc1cccc2c1C(=O)c1c(O)c3c(c(O)c1C2=O)C[C@@](O)(C(=O)CO)C[C@@H]3O[C@H]1C[C@H](N)[C@H](O)[C@H](C)O1 [DOXORUBICIN]
IC50 [1]: 460 nM | IC50 [2]: 210 nM
